Laboratory results: PubChem BioAssay AID1224830 (NIAID, 2016)
Shown is an unselected part of about 18,000 reagents. About 2,900 of them (16%) were called active. 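Calls are made per well; low scores hint the gene aids the LPS response, high scores that it dampens it.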 Repeated entries: four replicate wells of each siRNA pool.

- Screen: 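Genes whose knock-down alters the TNF-alpha reporter response to LPS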 (primary screen)
- System: human THP-1 monocytic leukaemia cells, TNF dual-luciferase reporter clone, PMA-differentiated to macrophage-like cells
- Reagent: siRNA pool against human genes, 50 nM
- Timing: LPS for 4 h, given about 3 days after siRNA transfection
- Treatment: bacterial LPS (TLR4 ligand), 10 ng/ml
- Read-out: 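TNF firefly reporter luminescence divided by renilla, normalised to the plate median, then turned into a robust z-score for each replicate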
- Direction: TNF reporter robust z-score: higher = stronger TNF reporter response to LPS
- Active means: 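a well is active when its z-score exceeds 2.8 or falls below -1.5; control wells carry no call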

NBPF3 (GeneID 84224) — TNF reporter robust z-score = -0.87; Call = inactive
NBPF3 (GeneID 84224) — TNF reporter robust z-score = -1.57; Call = active
NBPF3 (GeneID 84224) — TNF reporter robust z-score = -0.94; Call = inactive
NBPF3 (GeneID 84224) — TNF reporter robust z-score = -0.47; Call = inactive
ST8SIA1 (GeneID 6489) — TNF reporter robust z-score = 0.85; Call = inactive
ST8SIA1 (GeneID 6489) — TNF reporter robust z-score = 2.06; Call = inactive
ST8SIA1 (GeneID 6489) — TNF reporter robust z-score = 3.18; Call = active
ST8SIA1 (GeneID 6489) — TNF reporter robust z-score = 0.74; Call = inactive
ADSS2 (GeneID 159) — TNF reporter robust z-score = -0.57; Call = inactive
ADSS2 (GeneID 159) — TNF reporter robust z-score = -0.33; Call = inactive
ADSS2 (GeneID 159) — TNF reporter robust z-score = -0.18; Call = inactive
ADSS2 (GeneID 159) — TNF reporter robust z-score = -0.04; Call = inactive
SLC26A5 (GeneID 375611) — TNF reporter robust z-score = -0.32; Call = inactive
SLC26A5 (GeneID 375611) — TNF reporter robust z-score = -0.1; Call = inactive
SLC26A5 (GeneID 375611) — TNF reporter robust z-score = 0.13; Call = inactive
SLC26A5 (GeneID 375611) — TNF reporter robust z-score = -0.11; Call = inactive
GPS2 (GeneID 2874) — TNF reporter robust z-score = 0.27; Call = inactive
GPS2 (GeneID 2874) — TNF reporter robust z-score = 0.49; Call = inactive
GPS2 (GeneID 2874) — TNF reporter robust z-score = -0.14; Call = inactive
GPS2 (GeneID 2874) — TNF reporter robust z-score = 1.48; Call = inactive
GPIHBP1 (GeneID 338328) — TNF reporter robust z-score = -0.92; Call = inactive
GPIHBP1 (GeneID 338328) — TNF reporter robust z-score = -0.87; Call = inactive
GPIHBP1 (GeneID 338328) — TNF reporter robust z-score = -1.24; Call = inactive
GPIHBP1 (GeneID 338328) — TNF reporter robust z-score = -0.77; Call = inactive

Further reagents follow:
MCAM (GeneID 4162) — TNF reporter robust z-score = 0.57; Call = inactive
MCAM (GeneID 4162) — TNF reporter robust z-score = 1.45; Call = inactive
MCAM (GeneID 4162) — TNF reporter robust z-score = 1.05; Call = inactive
MCAM (GeneID 4162) — TNF reporter robust z-score = 1.64; Call = inactive
RPN1 (GeneID 6184) — TNF reporter robust z-score = 0.03; Call = inactive
RPN1 (GeneID 6184) — TNF reporter robust z-score = 0.97; Call = inactive
RPN1 (GeneID 6184) — TNF reporter robust z-score = -0.33; Call = inactive
RPN1 (GeneID 6184) — TNF reporter robust z-score = 0.27; Call = inactive
S100A1 (GeneID 6271) — TNF reporter robust z-score = 0.44; Call = inactive
S100A1 (GeneID 6271) — TNF reporter robust z-score = 1.45; Call = inactive
S100A1 (GeneID 6271) — TNF reporter robust z-score = -0.05; Call = inactive
S100A1 (GeneID 6271) — TNF reporter robust z-score = 0.63; Call = inactive
ARL6IP5 (GeneID 10550) — TNF reporter robust z-score = -0.55; Call = inactive
ARL6IP5 (GeneID 10550) — TNF reporter robust z-score = 0.08; Call = inactive
ARL6IP5 (GeneID 10550) — TNF reporter robust z-score = -0.91; Call = inactive
ARL6IP5 (GeneID 10550) — TNF reporter robust z-score = -0.12; Call = inactive
EIF1 (GeneID 10209) — TNF reporter robust z-score = -1.27; Call = inactive
EIF1 (GeneID 10209) — TNF reporter robust z-score = -1.44; Call = inactive
EIF1 (GeneID 10209) — TNF reporter robust z-score = -1.72; Call = active
EIF1 (GeneID 10209) — TNF reporter robust z-score = -1.45; Call = inactive
PKD2L1 (GeneID 9033) — TNF reporter robust z-score = -0.82; Call = inactive
PKD2L1 (GeneID 9033) — TNF reporter robust z-score = -0.55; Call = inactive
PKD2L1 (GeneID 9033) — TNF reporter robust z-score = -0.14; Call = inactive
PKD2L1 (GeneID 9033) — TNF reporter robust z-score = 1.46; Call = inactive
